For the assay, the target named is human farnesoid X receptor (Homo sapiens, UniProt Q96RI1). Put plainly: FXR in vitro assays (farnesoid X receptor/ECREx7 co-transfection assay, TR-FRET assay), Table I. The class given is cell-based. Particulars: for EC50: read-out: EC50 μM, agonist activity, one or more of the in vitro assays; for % Efficacy: relative to maximum response of chenodeoxycholic acid (CDCA). (Time-resolved FRET reads energy transfer from a long-lived donor to a nearby acceptor.)

Amino acid sequences for entries named in this document (tags omitted). Residues count along the entry.
UniProt Q96RI1, 1-472 isoform 2: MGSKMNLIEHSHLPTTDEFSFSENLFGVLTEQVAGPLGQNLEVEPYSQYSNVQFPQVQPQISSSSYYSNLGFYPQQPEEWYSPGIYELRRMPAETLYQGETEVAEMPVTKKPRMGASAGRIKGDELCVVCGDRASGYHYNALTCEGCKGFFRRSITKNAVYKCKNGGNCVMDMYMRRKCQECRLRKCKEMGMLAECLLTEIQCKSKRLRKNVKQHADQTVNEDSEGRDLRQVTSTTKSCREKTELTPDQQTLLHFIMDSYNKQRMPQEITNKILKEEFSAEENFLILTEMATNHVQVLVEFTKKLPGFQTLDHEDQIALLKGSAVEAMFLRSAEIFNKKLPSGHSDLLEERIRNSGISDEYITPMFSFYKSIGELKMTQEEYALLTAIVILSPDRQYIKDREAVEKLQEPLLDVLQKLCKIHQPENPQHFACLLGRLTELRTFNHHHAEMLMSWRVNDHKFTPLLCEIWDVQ
UniProt P19793, whole entry partner: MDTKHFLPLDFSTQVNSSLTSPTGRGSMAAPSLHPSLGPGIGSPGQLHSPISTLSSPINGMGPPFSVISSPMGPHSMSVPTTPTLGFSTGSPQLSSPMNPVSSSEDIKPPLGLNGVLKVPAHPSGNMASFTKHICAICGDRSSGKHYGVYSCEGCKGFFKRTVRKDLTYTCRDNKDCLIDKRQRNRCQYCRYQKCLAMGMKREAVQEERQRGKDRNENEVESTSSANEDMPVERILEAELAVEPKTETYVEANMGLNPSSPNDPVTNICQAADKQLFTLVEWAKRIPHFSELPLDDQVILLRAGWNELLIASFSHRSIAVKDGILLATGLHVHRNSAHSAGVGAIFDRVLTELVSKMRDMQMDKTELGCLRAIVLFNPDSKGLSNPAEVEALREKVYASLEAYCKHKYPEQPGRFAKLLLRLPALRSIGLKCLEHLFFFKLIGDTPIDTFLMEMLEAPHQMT

Structures were worked out from names or drawings and are uncertain.

A word on the EC50: it is the concentration at which the effect is half-maximal. For `COc1ccc(COc2cc(C(=O)N3C=C(C(=O)OC(C)C)c4[nH]c5ccccc5c4C(C)(C)C3)cc(F)c2F)cc1`, the EC50 lay within 0.1 to 1 µM and the “% Efficacy” value was “A (A=>100%)”.

Regarding `CC1(C)CN(C(=O)c2ccc(F)c(F)c2)CC(C(=O)NCCC(=O)O)c2[nH]c3ccccc3c21` (centres unmarked), the EC50 was 1 to 10 µM and the “% Efficacy” value is given as “D (D=40-60%)”.

As to `CC(C)OC(=O)C1=CN(C(=O)c2ccc(F)c(CN3CCCCC3)c2)CC(C)(C)c2c1[nH]c1ccccc21`, the half-maximal effective concentration (EC50) was in the range of 0.1 to 1 µM and the “% Efficacy” value was “A (A=>100%)”.

`CC(C)OC(=O)C1=CN(C(=O)c2cc(CN3CCCCC3)ccc2F)CC(C)(C)c2c1[nH]c1ccccc21`: the concentration giving a half-maximal response (EC50) lay within 0.1 to 1 µM and the “% Efficacy” value is listed as “A (A=>100%)”.

For the origin of these results see patent publication US20090203577A1 (EXELIXIS, INC., priority 2005, published 2009).
